Reference: patent publication US20030039641A1
No constants are given. Whether binding was seen depends on the method and setting. Some entries that bind do so weakly or less than the wild type. Where a sequence is shown, tags or fusion partners need not be part of it.

The chains behind the UniProt entries cited, without tags or fusion partners. Residues count along the entry.
UniProt P12314, residues 16-292: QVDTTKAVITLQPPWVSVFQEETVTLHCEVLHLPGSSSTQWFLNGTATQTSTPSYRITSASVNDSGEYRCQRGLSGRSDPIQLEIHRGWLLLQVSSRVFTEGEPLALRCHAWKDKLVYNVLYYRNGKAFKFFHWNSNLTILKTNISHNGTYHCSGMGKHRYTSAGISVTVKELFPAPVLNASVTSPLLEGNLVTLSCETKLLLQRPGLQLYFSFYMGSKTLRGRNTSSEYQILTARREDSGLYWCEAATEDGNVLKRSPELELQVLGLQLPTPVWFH

Key:
soluble form of FcγRI [1] = molecular target: soluble form of FcγRI (UniProt P12314); experiment: flow cytometry on pJG717-transformed tumor cells with soluble FcγRI
soluble form of FcγRI [2] = molecular target: soluble form of FcγRI (UniProt P12314); experiment: flow cytometry on pJG717-transformed 653 and NSO cells with soluble FcγRI

B1: H22-TM fusion protein (single chain Fv fragment of humanized anti-FcγRI antibody H22 fused to the platelet derived growth factor receptor transmembrane … (scFv)
chain: YPYDVPDYAGAQPARSDIQLTQSPSSLSASVGDRVTITCKSSQSVLYSSNQKNYLAWYQQKPGKAPKLLIYWASTRESGVPSRFSGSGSGTDFTFTISSLQPEDIATYYCHQYLSSWTFGQGTKVEIKSSGGGGSGGGGSGGGGSEVQLVESGGGVVQPGRSLRLSCSSSGFIFSDNYMYWVRQAPGKGLEWVATISDGGSYTYYPDSVKGRFTISRDNSKNTLFLQMDSLRPEDTGVYFCARGYYRYEGAMDYWGQGTPVTVSSPRLQVDEQKLISEEDLNAVGQDTQEVIVVPHSLPFKVVVISAILALVVLTIISLIILIMLWQKKPR
With B1 the binding (soluble form of FcγRI [1]) was “binds” and the binding (soluble form of FcγRI [2]) was “binds”.
